PubChem BioAssay AID1259254 | NCATS – 2017

Assay: 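Finding genes that stop cells copying their DNA twice in one cycle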 (primary screen)
System: human HCT116 colorectal cancer cells
Reagent: single siRNA against human genes
Duration: 3 days
Measured: 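Imaged Hoechst DNA stain sorts each cell into a cycle phase by DNA amount; per plate, G2 fraction set to 0% for non-targeting and 100% for GMNN siRNA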
Direction: G2 robust z-score and G2 cells, % of GMNN control: higher = more G2 cells, more excess DNA replication; raw share of cells in G2: higher = larger share of cells with G2 DNA content
Active means: 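Active siRNAs have a G2 robust z of 5 or more median absolute deviations over the median, which in these data means about 38% or higher of GMNN control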
In all, the deposit lists about 59,000 reagents; below is a part drawn at random. About 1,550 of all reagents (2.6%) count as active. 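G2 share is only a proxy for re-replication; each gene was hit by three separate siRNAs, and active genes were retested.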 Raw values are not corrected between plates. The numbers tell different reagents against one gene apart. Not stated in the record: the amount of reagent.

no.	gene	reagent no.	G2 robust z-score	G2 cells, % of GMNN control	raw share of cells in G2 (%)	Call
1	EHMT1	1	-0.909	-3.43	2.15	inactive
2	EHMT1	2	-0.993	-4.02	3.3	inactive
3	EHMT1	3	-1.16	-5.21	3.26	inactive
4	EHMT1	4	2.57	21.1	11.8	inactive
5	EHMT1	5	-0.556	-0.941	3.28	inactive
6	EHMT1	6	-0.251	1.2	3.7	inactive
7	RTF2	1	-0.554	-0.93	2.88	inactive
8	RTF2	2	-0.614	-1.35	3.12	inactive
9	RTF2	3	0.426	5.97	6.78	inactive
10	SPRNP1	1	-0.6	-1.25	4.27	inactive
11	SPRNP1	2	2.54	20.9	11.4	inactive
12	SPRNP1	3	0.548	6.82	6.22	inactive
13	FGFBP2	1	-0.86	-3.08	3.08	inactive
14	FGFBP2	2	-0.333	0.622	3.64	inactive
15	FGFBP2	3	-0.489	-0.472	2.26	inactive
16	TMEM17	1	0.265	4.83	5.33	inactive
17	TMEM17	2	-0.949	-3.71	1.71	inactive
18	TMEM17	3	2.51	20.7	9.29	inactive
19	OR6V1	1	0.418	5.91	6.02	inactive
20	OR6V1	2	0.941	9.59	7.45	inactive
21	OR6V1	3	0.331	5.29	6.32	inactive
22	NME4	1	-0.585	-1.15	5.02	inactive
23	NME4	2	-0.406	0.114	5.65	inactive
24	NME4	3	-0.772	-2.46	3.16	inactive
25	CCDC70	1	0.0736	3.49	3.46	inactive
26	CCDC70	2	-0.0764	2.43	4.92	inactive
27	CCDC70	3	-0.602	-1.27	3.08	inactive
28	UBASH3A	1	1.63	14.4	9.56	inactive
29	UBASH3A	2	3.23	25.7	13.6	inactive
30	UBASH3A	3	2.09	17.7	14	inactive

No new results follow: 4 of the entries above.
no.	gene	reagent no.	G2 robust z-score	G2 cells, % of GMNN control	raw share of cells in G2 (%)	Call
22	NME4	1	-0.585	-1.15	5.02	inactive
23	NME4	2	-0.406	0.114	5.65	inactive
24	NME4	3	-0.772	-2.46	3.16	inactive
25	CCDC70	1	0.0736	3.49	3.46	inactive

More reagents follow.
no.	gene	reagent no.	G2 robust z-score	G2 cells, % of GMNN control	raw share of cells in G2 (%)	Call
31	TFEC	1	-1.43	-7.11	3.51	inactive
32	TFEC	2	0.0863	3.57	5.35	inactive
33	TFEC	3	-0.254	1.18	4.27	inactive
34	VAMP7	1	0.0872	3.58	4.88	inactive
35	VAMP7	2	0.555	6.88	8.07	inactive
36	VAMP7	3	-0.25	1.21	3.55	inactive
37	MACROD1	1	1.84	15.9	9.92	inactive
38	MACROD1	2	3.85	30	15.9	inactive
39	MACROD1	3	0.0828	3.55	4.37	inactive
40	MYO1F	1	1.12	10.9	9.78	inactive
41	MYO1F	2	0.231	4.59	7.14	inactive
42	MYO1F	3	1.22	11.5	7	inactive
43	SPTBN5	1	0.74	8.17	6.53	inactive
44	SPTBN5	2	-0.494	-0.51	4.06	inactive
45	SPTBN5	3	-0.477	-0.386	3.06	inactive
46	ZFYVE26	1	-0.672	-1.76	2.94	inactive
47	ZFYVE26	2	0.884	9.19	10.1	inactive
48	ZFYVE26	3	3.56	28	15.1	inactive
49	CYP7B1	1	2.46	20.3	12.9	inactive
50	CYP7B1	2	0.766	8.36	8.14	inactive
51	CYP7B1	3	-0.877	-3.2	2.11	inactive
52	LIMD1-AS1	1	0.0523	3.34	4.91	inactive
53	LIMD1-AS1	2	-0.78	-2.52	2.37	inactive
54	LIMD1-AS1	3	3.2	25.5	10.6	inactive
55	HLA-DQA2	1	3.83	29.9	19.3	inactive
56	HLA-DQA2	2	-0.185	1.67	4.7	inactive
57	HLA-DQA2	3	0.341	5.37	5.63	inactive
58	HEPACAM2	1	-1.21	-5.51	1.58	inactive
59	HEPACAM2	2	-0.72	-2.1	2.41	inactive
60	HEPACAM2	3	2.74	22.2	10.3	inactive
61	OR8B4	1	1.68	14.8	9.03	inactive
62	OR8B4	2	0.712	7.98	6.13	inactive
63	OR8B4	3	-0.42	0.0131	3.27	inactive
64	GJB5	1	0.708	7.95	5.99	inactive
65	GJB5	2	0.466	6.24	5.94	inactive
66	GJB5	3	-0.648	-1.59	4.1	inactive
67	GREM2	1	-0.707	-2.01	2.17	inactive
68	GREM2	2	4.8	36.7	20.6	inactive
69	GREM2	3	-0.505	-0.584	4.35	inactive
70	INHBA	1	2.96	23.8	13.7	inactive
71	INHBA	2	-0.536	-0.8	5.38	inactive
72	INHBA	3	0.0402	3.25	5.39	inactive
73	CENPN	1	4.99	38.1	19.2	inactive
74	CENPN	2	1.48	13.4	9.67	inactive
75	CENPN	3	2.54	20.8	9.79	inactive
76	MBOAT4	1	-0.636	-1.51	3.04	inactive
77	MBOAT4	2	-0.579	-1.1	3	inactive
78	MBOAT4	3	-0.693	-1.91	2.47	inactive
79	NDUFAF3	1	0.655	7.58	7.26	inactive
80	NDUFAF3	2	1.55	13.9	9.95	inactive
81	NDUFAF3	3	1.64	14.5	8.36	inactive
82	SCML1	1	-0.591	-1.19	4.14	inactive
83	SCML1	2	0.0635	3.41	5.09	inactive
84	SCML1	3	0.915	9.4	8.85	inactive
85	PRPS1	1	-0.0867	2.36	6.39	inactive
86	PRPS1	2	-0.917	-3.48	2.8	inactive
87	PRPS1	3	-1.32	-6.33	3.28	inactive
